# Results as given in the supplement of paper PMC6411743.
# ± gives the standard deviation of the averaged measurements. This is one part of the list.
# Assays:
# Test in all cases: NP40-soluble protein abundance relative to vehicle (solubility fold change) (ratio); higher = more soluble protein in presence of GTP
# [1] = target: T1, B4DI03 and related entries (UniProt Q9BY50)
# T1 sequence (whole entry): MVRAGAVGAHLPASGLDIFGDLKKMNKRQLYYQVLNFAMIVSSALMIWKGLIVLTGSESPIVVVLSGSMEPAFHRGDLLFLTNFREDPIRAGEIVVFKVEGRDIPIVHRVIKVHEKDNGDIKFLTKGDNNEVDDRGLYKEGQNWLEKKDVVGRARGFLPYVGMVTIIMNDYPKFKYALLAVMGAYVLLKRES
# In short: (§1)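 Eight concentrations, 0.1 to 10 mM, were tested on Jurkat crude lysate for 10 min at room temperature and then 3 min at 37 °C, in three independent experiments. The lysate was solubilised with 0.8% NP40 and benzonase, ultracentrifuged, and the supernatant TMT-labelled for LC-MS/MS. Each value is the fold change against the detergent-processed vehicle in its own replicate, from vsn-normalised intensities.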
# [2] = target: T2, B5MCT7 and related entries (UniProt P49593)
# T2 sequence (whole entry): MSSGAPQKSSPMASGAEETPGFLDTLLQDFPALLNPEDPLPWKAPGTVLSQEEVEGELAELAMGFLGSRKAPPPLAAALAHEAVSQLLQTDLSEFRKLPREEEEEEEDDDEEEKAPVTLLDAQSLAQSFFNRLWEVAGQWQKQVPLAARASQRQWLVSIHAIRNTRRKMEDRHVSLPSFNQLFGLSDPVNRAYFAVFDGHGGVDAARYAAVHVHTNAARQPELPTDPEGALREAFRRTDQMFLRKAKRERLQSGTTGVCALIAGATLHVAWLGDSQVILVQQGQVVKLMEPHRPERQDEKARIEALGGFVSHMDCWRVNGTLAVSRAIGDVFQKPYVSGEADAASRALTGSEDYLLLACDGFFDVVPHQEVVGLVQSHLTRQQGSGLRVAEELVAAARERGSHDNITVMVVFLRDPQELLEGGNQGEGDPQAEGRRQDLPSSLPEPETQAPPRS
# In short: as §1
# [3] = target: T3, B5MDU6 and related entries (UniProt Q9H6V9)
# T3 sequence (whole entry): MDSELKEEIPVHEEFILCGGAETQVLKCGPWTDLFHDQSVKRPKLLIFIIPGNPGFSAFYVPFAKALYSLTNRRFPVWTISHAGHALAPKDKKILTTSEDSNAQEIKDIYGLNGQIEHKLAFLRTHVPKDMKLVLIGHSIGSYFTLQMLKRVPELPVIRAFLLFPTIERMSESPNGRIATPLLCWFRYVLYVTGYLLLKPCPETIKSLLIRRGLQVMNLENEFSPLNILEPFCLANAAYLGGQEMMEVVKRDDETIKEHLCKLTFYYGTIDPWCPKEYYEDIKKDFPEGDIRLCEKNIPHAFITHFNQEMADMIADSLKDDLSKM
# In short: as §1
# [4] = target: T4, B7WPL0 and related entries (UniProt Q9NVN3)
# T4 sequence (whole entry): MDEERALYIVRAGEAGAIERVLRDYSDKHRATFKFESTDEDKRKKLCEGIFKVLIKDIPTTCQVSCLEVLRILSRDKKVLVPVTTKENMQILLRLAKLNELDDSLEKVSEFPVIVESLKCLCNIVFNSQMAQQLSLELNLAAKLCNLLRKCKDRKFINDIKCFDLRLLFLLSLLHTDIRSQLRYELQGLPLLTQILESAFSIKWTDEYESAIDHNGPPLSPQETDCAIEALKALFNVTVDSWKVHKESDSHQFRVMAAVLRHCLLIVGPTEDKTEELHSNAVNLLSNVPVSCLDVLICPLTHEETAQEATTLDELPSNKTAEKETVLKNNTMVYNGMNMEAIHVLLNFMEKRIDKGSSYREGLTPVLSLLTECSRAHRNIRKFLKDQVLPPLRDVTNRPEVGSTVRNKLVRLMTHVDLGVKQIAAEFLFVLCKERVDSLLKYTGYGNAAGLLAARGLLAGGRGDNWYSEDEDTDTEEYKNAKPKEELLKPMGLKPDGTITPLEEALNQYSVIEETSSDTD
# In short: as §1
smiles,measurement,setting,value
Nc1nc2c(ncn2[C@@H]2O[C@H](COP(=O)(O)OP(=O)(O)OP(=O)(O)O)[C@@H](O)[C@H]2O)c(=O)[nH]1 [guanosine triphosphate],NP40-soluble protein abundance,[1]; concentration: 4mM,0.888 ± 0.05
same,NP40-soluble protein abundance,[1]; concentration: 6mM,0.903 ± 0.068
same,NP40-soluble protein abundance,[1]; concentration: 8mM,0.886 ± 0.027
same,NP40-soluble protein abundance,[1]; concentration: 10mM,0.859 ± 0.048
same,NP40-soluble protein abundance,[2]; concentration: 0.1mM,0.965 ± 0.084
same,NP40-soluble protein abundance,[2]; concentration: 0.5mM,0.918 ± 0.076
same,NP40-soluble protein abundance,[2]; concentration: 1mM,0.925 ± 0.059
same,NP40-soluble protein abundance,[2]; concentration: 2mM,0.891 ± 0.081
same,NP40-soluble protein abundance,[2]; concentration: 4mM,0.892 ± 0.081
same,NP40-soluble protein abundance,[2]; concentration: 6mM,0.863 ± 0.061
same,NP40-soluble protein abundance,[2]; concentration: 8mM,0.887 ± 0.077
same,NP40-soluble protein abundance,[2]; concentration: 10mM,0.867 ± 0.067
same,NP40-soluble protein abundance,[3]; concentration: 0.1mM,0.964 ± 0.021
same,NP40-soluble protein abundance,[3]; concentration: 0.5mM,0.997 ± 0.041
same,NP40-soluble protein abundance,[3]; concentration: 1mM,0.947 ± 0.04
same,NP40-soluble protein abundance,[3]; concentration: 2mM,0.91 ± 0.029
same,NP40-soluble protein abundance,[3]; concentration: 4mM,0.873 ± 0.024
same,NP40-soluble protein abundance,[3]; concentration: 6mM,0.868 ± 0.021
same,NP40-soluble protein abundance,[3]; concentration: 8mM,0.853 ± 0.029
same,NP40-soluble protein abundance,[3]; concentration: 10mM,0.827 ± 0.041
same,NP40-soluble protein abundance,[4]; concentration: 0.1mM,1.1 ± 0.074
same,NP40-soluble protein abundance,[4]; concentration: 0.5mM,1.03 ± 0.038
same,NP40-soluble protein abundance,[4]; concentration: 1mM,1.02 ± 0.047
same,NP40-soluble protein abundance,[4]; concentration: 2mM,1.02 ± 0.12
same,NP40-soluble protein abundance,[4]; concentration: 4mM,0.991 ± 0.084
same,NP40-soluble protein abundance,[4]; concentration: 6mM,0.947 ± 0.059
same,NP40-soluble protein abundance,[4]; concentration: 8mM,0.929 ± 0.044
same,NP40-soluble protein abundance,[4]; concentration: 10mM,0.929 ± 0.026

# For convenience, part of the list above.
smiles,measurement,setting,value
Nc1nc2c(ncn2[C@@H]2O[C@H](COP(=O)(O)OP(=O)(O)OP(=O)(O)O)[C@@H](O)[C@H]2O)c(=O)[nH]1 [guanosine triphosphate],NP40-soluble protein abundance,[1]; concentration: 10mM,0.859 ± 0.048
same,NP40-soluble protein abundance,[2]; concentration: 0.1mM,0.965 ± 0.084
